The results in this text go back to patent US20250057928A1 (OSAKA UNIVERSITY, priority 2021, published 2025).

Plain letter strings leave the end groups untold.

The data set can be described thus: peptide synthesis. The settings on record: whole synthesis, 220 nm.

With APSQPWQR, the “final HPLC purity” value was 98.74%.
For KKSQPWQR, the “final HPLC purity” value stood at 96.6%.
Regarding KPSQPWQR, the “final HPLC purity” value is recorded as 96.15%.
LSSSQQWQ: the “final HPLC purity” value is listed as 98.1%.
As for PSQPWQRK, the “final HPLC purity” value is 95.8%.
Take PWQRPWQR: the “final HPLC purity” value was 97.55%.
For QPWQRGGGGSQPWQR, the “final HPLC purity” value turned out to be 91.6%.
Turning to QPWQRSQPWQR, the “final HPLC purity” value worked out at 91.61%.
QWQRPLLR: the “final HPLC purity” value was 98.9%.
On to QWQRPWQR, for which the “final HPLC purity” value came to 98.37%.
SASQPWQR: the “final HPLC purity” value is 97%.
For SKSQPWQR, the “final HPLC purity” value amounted to 96.12%.
Consider SPAQPWQR, for which the “final HPLC purity” value worked out at 98.45%.
Turning to SPKQPWQR, the “final HPLC purity” value stood at 96.12%.
The figure for SPSAPWQR is 96.32%; for SPSQAWQR it is 98.13%.
As for SPSQPAQR, the figure is 97.97%.
Turning to SPSQPWAR, the “final HPLC purity” value came to 98.53%.
SPSQPWQA: the “final HPLC purity” value came to 98.17%.
As for “SPSQPWQR (Ahx linker; listed as Homo sapiens)”, the figure is 98.2%; as for SPSQQWQR, 99.04%.
The figure for SPSQSWQR is 98.54%; for SPSQTWQR it is 97.86%; for SQQWQRPL it is 97.7%.
As for SSQQWQRP, the “final HPLC purity” value amounted to 99.1%.
Turning to SSSQPWQR, the “final HPLC purity” value turned out to be 98.83%.
On to “SSSQQWQR (Ahx linker; listed as Mus musculus)”, for which the “final HPLC purity” value is 98.6%.
The figure for SSSQSWQR is 98.62%; for SSSQTWQR it is 98%.
Take STSQPWQR: the “final HPLC purity” value was found to be 97.25%.
Take STSQQWQR: the “final HPLC purity” value was 97.84%.
Turning to STSQSWQR, the “final HPLC purity” value came out at 98.09%.
As for STSQTWQR, the figure is 98.89%.
